# Results published in US20020132364A1, “Quant-screentm chemiluminescent assays” (priority 2001, published 2002).
# Test system: NIH/3T3 cells
# Conditions: NIH/3T3, 26 hours in full medium, various concentrations
smiles,measurement,value
CN[C@@H]1C[C@H]2O[C@@](C)([C@@H]1OC)n1c3ccccc3c3c4c(c5c6ccccc6n2c5c31)C(=O)NC4 [staurosporine],"growth inhibition (Quant-Screen Mammalian Assay signal, FIG. 12)",correlation of growth inhibition to the concentration of staurosporine
